In publication PMC7579878, “Unannotated single nucleotide polymorphisms in the TATA box of erythropoiesis genes show in vitro positive involvements in cognitive and mental disorders”:
For at least one entry, the source does not settle the construct or the ends of the probe.

The chains behind the UniProt entries cited, without tags or fusion partners.
UniProt P20226, whole entry: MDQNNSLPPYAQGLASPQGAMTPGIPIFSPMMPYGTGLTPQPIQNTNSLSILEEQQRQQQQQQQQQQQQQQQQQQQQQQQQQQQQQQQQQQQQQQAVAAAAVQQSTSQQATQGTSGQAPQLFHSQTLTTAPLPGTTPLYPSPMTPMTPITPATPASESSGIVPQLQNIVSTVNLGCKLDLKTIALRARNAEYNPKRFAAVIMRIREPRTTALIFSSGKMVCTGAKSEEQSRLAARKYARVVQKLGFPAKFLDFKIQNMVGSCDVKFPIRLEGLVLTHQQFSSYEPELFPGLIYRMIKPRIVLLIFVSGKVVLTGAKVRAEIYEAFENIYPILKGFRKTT

Biological target: TATA-binding protein (hTBP) (Homo sapiens) (UniProt P20226)
Test: EMSA (kinetic, kd/ka)
Conditions: EMSA with 32P-labelled 26 bp duplexes; binding buffer; recombinant protein; residues 1-339; label: 32P (both strands)

“CACGTACATATTTTTTGTCTGCTACG (double strand) [EPOR rs567946217:A (-31C>A, ODN 8)]” gave a Kd of 0.021 µM.
